The list shows a part of the results.

By UniProt entry, the sequences of proteins in these tests, tags left out. Where a name states a change or a piece, a line headed by the entry shows the natural chain unless it says otherwise.
UniProt Q6P587: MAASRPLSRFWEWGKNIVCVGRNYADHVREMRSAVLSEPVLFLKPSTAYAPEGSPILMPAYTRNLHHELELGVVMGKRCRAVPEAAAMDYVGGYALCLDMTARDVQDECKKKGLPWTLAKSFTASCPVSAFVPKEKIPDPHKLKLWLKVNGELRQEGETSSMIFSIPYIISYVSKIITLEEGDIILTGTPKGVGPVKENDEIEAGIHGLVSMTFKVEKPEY
UniProt Q9H4H8: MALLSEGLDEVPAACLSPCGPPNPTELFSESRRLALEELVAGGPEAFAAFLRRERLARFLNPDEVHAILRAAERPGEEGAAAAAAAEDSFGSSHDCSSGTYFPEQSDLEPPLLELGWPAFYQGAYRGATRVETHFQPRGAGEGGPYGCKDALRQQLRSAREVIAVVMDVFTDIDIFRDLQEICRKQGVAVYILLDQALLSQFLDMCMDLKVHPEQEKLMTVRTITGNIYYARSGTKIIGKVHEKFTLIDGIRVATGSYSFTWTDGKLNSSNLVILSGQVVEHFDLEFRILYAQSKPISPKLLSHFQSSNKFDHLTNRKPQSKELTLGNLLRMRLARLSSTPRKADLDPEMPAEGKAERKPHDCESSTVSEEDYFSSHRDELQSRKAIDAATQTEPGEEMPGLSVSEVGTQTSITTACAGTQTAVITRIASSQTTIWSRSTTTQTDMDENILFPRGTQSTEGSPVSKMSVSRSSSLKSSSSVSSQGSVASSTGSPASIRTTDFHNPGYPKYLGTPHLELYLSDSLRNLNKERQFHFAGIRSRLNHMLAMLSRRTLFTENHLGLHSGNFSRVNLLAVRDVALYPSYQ
UniProt Q9NWS6: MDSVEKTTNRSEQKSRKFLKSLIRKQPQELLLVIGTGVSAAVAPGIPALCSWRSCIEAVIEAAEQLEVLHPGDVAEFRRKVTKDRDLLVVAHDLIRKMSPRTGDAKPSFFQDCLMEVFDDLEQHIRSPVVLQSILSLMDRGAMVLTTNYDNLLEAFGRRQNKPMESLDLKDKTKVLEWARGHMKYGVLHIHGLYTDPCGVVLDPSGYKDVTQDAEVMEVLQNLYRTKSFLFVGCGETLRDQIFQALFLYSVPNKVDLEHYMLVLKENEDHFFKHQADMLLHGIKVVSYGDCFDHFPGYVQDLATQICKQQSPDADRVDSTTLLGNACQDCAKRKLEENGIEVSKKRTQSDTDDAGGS
UniProt Q5RKV6, whole entry, looked up: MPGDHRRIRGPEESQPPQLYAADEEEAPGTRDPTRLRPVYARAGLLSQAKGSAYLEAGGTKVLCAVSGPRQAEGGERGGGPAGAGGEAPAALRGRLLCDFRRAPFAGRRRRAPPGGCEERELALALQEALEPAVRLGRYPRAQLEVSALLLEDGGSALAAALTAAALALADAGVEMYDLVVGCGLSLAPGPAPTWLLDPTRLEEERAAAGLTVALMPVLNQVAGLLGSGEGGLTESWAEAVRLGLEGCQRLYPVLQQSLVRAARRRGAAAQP
UniProt Q96KP1: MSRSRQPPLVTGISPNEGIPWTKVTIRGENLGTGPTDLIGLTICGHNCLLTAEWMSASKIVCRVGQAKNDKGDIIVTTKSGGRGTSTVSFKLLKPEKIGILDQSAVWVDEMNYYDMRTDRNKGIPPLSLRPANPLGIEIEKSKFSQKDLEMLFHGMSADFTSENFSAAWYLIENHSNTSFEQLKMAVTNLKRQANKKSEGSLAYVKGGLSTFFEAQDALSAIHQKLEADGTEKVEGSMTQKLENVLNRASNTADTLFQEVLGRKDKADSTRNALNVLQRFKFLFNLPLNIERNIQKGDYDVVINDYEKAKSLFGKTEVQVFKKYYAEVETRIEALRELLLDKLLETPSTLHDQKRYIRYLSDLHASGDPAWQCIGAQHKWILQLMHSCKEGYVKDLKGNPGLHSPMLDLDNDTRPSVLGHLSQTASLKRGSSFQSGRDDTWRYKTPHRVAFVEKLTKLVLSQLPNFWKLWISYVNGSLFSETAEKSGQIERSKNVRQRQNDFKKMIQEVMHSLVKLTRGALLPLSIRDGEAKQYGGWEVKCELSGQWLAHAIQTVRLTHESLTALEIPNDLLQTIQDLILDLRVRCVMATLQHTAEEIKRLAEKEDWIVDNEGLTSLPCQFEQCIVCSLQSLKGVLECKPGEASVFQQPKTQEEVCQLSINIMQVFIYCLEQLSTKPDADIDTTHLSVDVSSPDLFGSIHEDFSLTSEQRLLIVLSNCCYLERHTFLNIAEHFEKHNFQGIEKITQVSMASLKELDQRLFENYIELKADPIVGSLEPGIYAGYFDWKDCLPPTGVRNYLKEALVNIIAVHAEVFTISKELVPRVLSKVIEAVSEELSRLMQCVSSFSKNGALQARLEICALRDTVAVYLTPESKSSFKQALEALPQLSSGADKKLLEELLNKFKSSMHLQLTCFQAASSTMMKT
UniProt Q96A26: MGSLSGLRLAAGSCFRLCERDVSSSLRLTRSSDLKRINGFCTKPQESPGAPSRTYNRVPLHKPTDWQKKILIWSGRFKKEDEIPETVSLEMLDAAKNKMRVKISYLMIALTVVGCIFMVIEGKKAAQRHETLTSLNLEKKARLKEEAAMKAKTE
UniProt Q96A65: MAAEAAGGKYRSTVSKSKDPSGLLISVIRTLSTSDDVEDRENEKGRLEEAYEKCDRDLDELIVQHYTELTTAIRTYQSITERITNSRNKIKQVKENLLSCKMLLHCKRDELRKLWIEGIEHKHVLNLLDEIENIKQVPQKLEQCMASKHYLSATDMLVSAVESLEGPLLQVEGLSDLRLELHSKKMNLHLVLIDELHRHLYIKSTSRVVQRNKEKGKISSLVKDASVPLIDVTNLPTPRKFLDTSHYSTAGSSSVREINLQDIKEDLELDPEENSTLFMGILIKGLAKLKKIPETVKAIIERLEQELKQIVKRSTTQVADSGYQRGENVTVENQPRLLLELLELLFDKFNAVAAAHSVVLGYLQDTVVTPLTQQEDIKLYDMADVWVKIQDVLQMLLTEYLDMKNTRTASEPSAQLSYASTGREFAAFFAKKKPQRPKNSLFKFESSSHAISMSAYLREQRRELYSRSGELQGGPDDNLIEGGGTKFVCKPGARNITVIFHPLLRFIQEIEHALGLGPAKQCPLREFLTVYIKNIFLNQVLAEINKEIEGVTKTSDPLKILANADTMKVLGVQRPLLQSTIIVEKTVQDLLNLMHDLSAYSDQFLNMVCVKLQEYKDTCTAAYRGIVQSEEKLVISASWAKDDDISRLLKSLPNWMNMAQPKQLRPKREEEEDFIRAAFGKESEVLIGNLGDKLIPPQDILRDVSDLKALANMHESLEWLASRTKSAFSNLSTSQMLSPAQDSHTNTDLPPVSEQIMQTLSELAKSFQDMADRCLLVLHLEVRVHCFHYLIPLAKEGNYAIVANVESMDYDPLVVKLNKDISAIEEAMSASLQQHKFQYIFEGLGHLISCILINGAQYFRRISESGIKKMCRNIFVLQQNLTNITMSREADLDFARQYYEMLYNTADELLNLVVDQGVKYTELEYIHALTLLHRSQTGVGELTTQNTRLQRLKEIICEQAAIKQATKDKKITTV
UniProt P12259: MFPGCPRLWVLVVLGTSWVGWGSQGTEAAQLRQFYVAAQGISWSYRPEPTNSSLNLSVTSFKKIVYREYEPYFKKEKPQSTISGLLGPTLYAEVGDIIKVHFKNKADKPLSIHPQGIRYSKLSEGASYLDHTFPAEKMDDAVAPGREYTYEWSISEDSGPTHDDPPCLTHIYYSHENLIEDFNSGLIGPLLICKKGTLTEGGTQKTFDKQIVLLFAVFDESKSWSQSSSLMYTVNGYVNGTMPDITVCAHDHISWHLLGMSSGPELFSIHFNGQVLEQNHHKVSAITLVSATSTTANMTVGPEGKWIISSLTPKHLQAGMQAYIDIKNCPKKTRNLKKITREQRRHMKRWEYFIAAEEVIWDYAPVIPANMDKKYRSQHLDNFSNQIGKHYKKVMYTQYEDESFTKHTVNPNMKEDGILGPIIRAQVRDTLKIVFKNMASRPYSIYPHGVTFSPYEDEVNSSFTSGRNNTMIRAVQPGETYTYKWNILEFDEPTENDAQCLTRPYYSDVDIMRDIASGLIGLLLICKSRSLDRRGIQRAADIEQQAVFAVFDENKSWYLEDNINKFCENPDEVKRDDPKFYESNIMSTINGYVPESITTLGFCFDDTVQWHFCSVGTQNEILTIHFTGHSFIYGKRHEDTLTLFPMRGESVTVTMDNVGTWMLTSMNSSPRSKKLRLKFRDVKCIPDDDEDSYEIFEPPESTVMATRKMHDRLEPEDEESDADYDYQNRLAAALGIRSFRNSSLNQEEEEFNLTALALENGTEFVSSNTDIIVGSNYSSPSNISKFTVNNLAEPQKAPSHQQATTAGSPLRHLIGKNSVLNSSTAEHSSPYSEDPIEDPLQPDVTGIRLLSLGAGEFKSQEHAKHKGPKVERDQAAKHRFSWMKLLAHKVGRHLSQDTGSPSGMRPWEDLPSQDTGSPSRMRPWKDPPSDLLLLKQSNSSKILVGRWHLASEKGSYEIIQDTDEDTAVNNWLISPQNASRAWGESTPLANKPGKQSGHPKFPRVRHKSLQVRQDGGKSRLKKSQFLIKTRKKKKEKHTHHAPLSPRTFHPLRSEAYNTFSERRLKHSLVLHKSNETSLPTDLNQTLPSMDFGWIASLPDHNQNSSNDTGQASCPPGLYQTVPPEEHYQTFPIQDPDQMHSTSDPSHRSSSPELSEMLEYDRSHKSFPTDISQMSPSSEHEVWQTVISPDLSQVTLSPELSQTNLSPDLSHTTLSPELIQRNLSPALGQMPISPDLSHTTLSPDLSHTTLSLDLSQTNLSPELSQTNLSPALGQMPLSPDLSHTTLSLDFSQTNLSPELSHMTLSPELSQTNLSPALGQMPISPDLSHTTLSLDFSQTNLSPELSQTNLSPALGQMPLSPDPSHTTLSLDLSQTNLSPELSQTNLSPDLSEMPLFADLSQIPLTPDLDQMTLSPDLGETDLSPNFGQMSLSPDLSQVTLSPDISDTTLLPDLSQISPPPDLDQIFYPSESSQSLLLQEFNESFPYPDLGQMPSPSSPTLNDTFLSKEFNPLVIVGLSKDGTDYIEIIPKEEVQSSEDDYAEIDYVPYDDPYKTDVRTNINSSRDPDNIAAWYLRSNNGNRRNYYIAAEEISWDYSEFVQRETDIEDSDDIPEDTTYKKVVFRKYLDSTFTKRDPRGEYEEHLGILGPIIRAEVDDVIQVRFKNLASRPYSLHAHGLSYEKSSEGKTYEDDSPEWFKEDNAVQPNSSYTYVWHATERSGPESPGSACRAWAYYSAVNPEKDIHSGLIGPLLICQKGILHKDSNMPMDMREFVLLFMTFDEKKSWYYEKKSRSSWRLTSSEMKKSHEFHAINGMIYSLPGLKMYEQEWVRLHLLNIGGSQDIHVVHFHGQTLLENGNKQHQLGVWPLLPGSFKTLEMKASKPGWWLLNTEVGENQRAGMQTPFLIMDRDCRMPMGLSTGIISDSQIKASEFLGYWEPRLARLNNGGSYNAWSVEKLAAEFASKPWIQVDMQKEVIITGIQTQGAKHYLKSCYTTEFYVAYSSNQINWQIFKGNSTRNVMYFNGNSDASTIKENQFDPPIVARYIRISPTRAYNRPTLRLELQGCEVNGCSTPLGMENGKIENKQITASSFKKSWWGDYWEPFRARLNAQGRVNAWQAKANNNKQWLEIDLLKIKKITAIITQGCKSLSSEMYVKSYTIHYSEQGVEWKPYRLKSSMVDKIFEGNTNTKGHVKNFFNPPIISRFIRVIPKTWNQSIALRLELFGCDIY
UniProt Q96E09: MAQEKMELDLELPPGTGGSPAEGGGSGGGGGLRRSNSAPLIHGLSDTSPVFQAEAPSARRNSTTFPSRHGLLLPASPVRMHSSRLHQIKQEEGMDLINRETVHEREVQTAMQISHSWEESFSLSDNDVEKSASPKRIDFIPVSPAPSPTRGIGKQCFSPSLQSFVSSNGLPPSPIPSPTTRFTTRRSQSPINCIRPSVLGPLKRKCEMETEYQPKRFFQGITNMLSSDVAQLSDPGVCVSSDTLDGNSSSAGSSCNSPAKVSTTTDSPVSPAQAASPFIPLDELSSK
UniProt Q99504: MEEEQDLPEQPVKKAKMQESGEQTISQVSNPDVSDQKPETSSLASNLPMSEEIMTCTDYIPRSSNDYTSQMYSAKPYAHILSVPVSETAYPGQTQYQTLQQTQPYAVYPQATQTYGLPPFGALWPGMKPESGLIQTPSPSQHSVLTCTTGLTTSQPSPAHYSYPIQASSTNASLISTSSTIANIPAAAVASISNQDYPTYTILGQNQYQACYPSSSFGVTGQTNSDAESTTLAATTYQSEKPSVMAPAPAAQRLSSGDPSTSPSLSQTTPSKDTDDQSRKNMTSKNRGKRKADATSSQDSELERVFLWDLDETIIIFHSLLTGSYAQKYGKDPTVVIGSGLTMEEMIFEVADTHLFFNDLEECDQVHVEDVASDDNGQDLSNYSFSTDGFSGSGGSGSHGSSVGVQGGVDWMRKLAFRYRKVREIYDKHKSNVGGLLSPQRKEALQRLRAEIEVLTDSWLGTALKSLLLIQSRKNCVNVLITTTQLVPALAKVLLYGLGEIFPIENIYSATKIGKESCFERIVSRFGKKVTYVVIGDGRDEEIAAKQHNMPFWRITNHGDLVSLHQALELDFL

Compound in the first assay: COc1cc(Nc2ncc3c(n2)-c2ccc(Cl)cc2C(c2c(F)cccc2OC)=NC3)ccc1C(=O)O [alisertib]
Nature of the assay: log2 fold change, soluble protein after heating vs DMSO (PISA); higher = thermal stabilisation; K562 lysate, 10 uM; active = over 0.2 and 3.5 SD of the protein, either way, in both replicates (recomputed). In short, it runs like this: (§1)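 To prepare the extract, K562 pellets were dounce-homogenised in PBS pH 7.4 with 1 mM MgCl2, giving crude material at 1 mg/mL protein. This was treated with 10 μM compound for 30 min, then heated in aliquots for 3 min over 48°C-58°C before pooling and addition of NP-40 to 0.5% at 4°C. Centrifugation at 21,000xg for 90 min left soluble protein in the supernatant, which TMTpro 16plex LC-MS/MS quantified with equalised channel sums. Results are log-two fold changes in thermal stability compared with solvent controls, from duplicates.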
In the case of FAHD1 (UniProt Q6P587), the log2 fold change was inactive: -0.08.
The same measure, in the same setting: under FAM49B (UniProt Q9NUQ9) stands inactive: 0.02.
Still for that read-out and setting: the figure for FABP5 (UniProt Q01469) is inactive: -0.051.
On the same count and under the same terms, under FAM83D (UniProt Q9H4H8) stands inactive: 0.015; under EXTL2 (UniProt Q9UBQ6), inactive: -0.021.
Turning to FAM118A (UniProt Q9NWS6), the log2 fold change is inactive: 0.008.
Still for that read-out and setting: the figure for ESYT2 (UniProt H7BXI1) is inactive: -0.003; for ETFB (UniProt P38117) it is inactive: 0.019; for ERP29 (UniProt P30040) it is inactive: 0.013.
Regarding FAM50A (UniProt Q14320), the log2 fold change is inactive: -0.012.
Same read-out and setting: the figure for ERICH1 (UniProt Q86X53) is inactive: -0.106.
On the same count and under the same terms, the figure for FAHD2A (UniProt Q96GK7) is inactive: 0.028.
On to FAM210B (UniProt Q96KR6), for which the log2 fold change is inactive: 0.002.
Same read-out and setting: under ETF1 (UniProt P62495) stands inactive: 0.004; under EXOSC6 (UniProt Q5RKV6), inactive: 0.033.
As to EXOC7 (UniProt Q9UPT5), the log2 fold change is inactive: 0.006.

Compound in a further assay: COc1cc2nc(-c3cc(F)ccc3O)nc(N[C@@H]3CNC[C@H]3C(C)(C)O)c2cc1OC
The assay is described as above. The method in brief:
as §1
For the target ETNK1 (UniProt Q9HBU6), the log2 fold change was inactive: -0.008.
Same read-out and setting: the figure for FAM83A (UniProt Q86UY5) is inactive: -0.013.
Still for that read-out and setting: under FADS3 (UniProt Q9Y5Q0) stands inactive: 0.
Same read-out and setting: the figure for EXOC2 (UniProt Q96KP1) is inactive: 0.007.
In the case of FAM120A isoform 6 (UniProt Q9NZB2), the log2 fold change was inactive: -0.006.
On the same count and under the same terms, under EXOSC5 (UniProt Q9NQT4) stands inactive: 0.013.
Still for that read-out and setting: under FAM162A (UniProt Q96A26) stands inactive: -0.035.
On the same count and under the same terms, under EZH2 isoform 2 (UniProt Q15910) stands inactive: 0.011; under EXOC4 (UniProt Q96A65), inactive: 0.008; under EXOSC4 (UniProt Q9NPD3), inactive: 0.018.
As for ESS2 (UniProt Q96DF8), the log2 fold change was inactive: -0.021.
On the same count and under the same terms, under EXOC6 (UniProt Q8TAG9) stands inactive: 0.016.
On the same count and under the same terms, the figure for FADS1, A0A0A0MR51 is inactive: -0.067.
For the target F5 (UniProt P12259), the log2 fold change was inactive: 0.048.
Consider FAM207A (UniProt Q9NSI2), for which the log2 fold change was inactive: 0.014.
Still for that read-out and setting: under ESD (UniProt P10768) stands inactive: -0.03; under FAM122A (UniProt Q96E09), inactive: -0.004; under FAM114A2 (UniProt Q9NRY5), inactive: 0.118.
On the same count and under the same terms, the figure for FAM136A (UniProt Q96C01) is inactive: 0.018; for EXOC3 (UniProt O60645) it is inactive: -0.023; for EYA3 (UniProt Q99504) it is inactive: 0.046.
Turning to ERVK3-1, A0A0U1RQV1, the log2 fold change is inactive: 0.011.
Regarding ERLEC1 (UniProt Q96DZ1), the log2 fold change was inactive: -0.008.
Still for that read-out and setting: under ESYT1 isoform 2 (UniProt Q9BSJ8) stands inactive: 0.183; under FAHD1 (UniProt Q6P587), inactive: -0.002; under FAM49B (UniProt Q9NUQ9), inactive: -0.001.
On the same count and under the same terms, the figure for FABP5 (UniProt Q01469) is inactive: -0.057; for FAM83D (UniProt Q9H4H8) it is inactive: 0.062.
Still for that read-out and setting: under EXTL2 (UniProt Q9UBQ6) stands inactive: -0.005; under FAM118A (UniProt Q9NWS6), inactive: 0.03; under ESYT2 (UniProt H7BXI1), inactive: 0.029.
For the target ETFB (UniProt P38117), the log2 fold change is inactive: -0.014.
On the same count and under the same terms, under ERP29 (UniProt P30040) stands inactive: -0.008; under FAM50A (UniProt Q14320), inactive: 0.015; under ERICH1 (UniProt Q86X53), inactive: 0.072.
On the same count and under the same terms, under FAHD2A (UniProt Q96GK7) stands inactive: 0.011.
FAM210B (UniProt Q96KR6): the log2 fold change is inactive: -0.022.
Consider ETF1 (UniProt P62495), for which the log2 fold change is inactive: 0.012.
On the same count and under the same terms, under EXOSC6 (UniProt Q5RKV6) stands inactive: 0.007.
Consider EXOC7 (UniProt Q9UPT5), for which the log2 fold change was inactive: 0.007.

These data come from the supplement of paper PMC10849652.
